Results published in PubChem BioAssay AID720609 (Broad Institute, 2013).
All entries are inconclusive by the source's own rule. Clear calls are listed elsewhere.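 Rule for the calls: active = viability signal falls with a fitted half-maximal concentration at or below a set limit at all three treatment times; inconclusive = treatment times disagree, or a flat partial drop, or poor fit; inactive = inactive at every treatment time.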

Assay: cytotoxicity in HeLa cervical cancer cells – cell-based, CellTiter-Glo ATP luminescence, 8-48 h, dry powder, mechanism study for HRAS target identification, late-stage follow-up (AID 720609)
Conditions: HeLa viability; at 35 µM (top of the series)

In the case of `Cc1onc(C(=O)N2CCN(C(c3ccc(Cl)cc3)c3ccc(Cl)cc3)CC2)c1[N+](=O)[O-]`, the activity change, negative = cytotoxicity was inconclusive: -55.9%.
